Experiment [1] addresses T1, CTDNEP1ΔAH as it stands in the crystallised CTDNEP1ΔAH-linker-sNEP1R1-His6 fusion (human) (UniProt O95476).
T1 sequence: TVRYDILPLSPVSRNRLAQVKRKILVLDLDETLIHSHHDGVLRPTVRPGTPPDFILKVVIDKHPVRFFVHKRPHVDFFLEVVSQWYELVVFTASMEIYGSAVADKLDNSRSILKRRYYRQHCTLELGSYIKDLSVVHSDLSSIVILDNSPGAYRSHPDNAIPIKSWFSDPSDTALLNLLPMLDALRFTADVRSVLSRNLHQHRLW
The experiment is described as follows: crystal structure; CTDNEP1ΔAH-sNEP1R1-His6 fusion, hanging drop, 5.5 – 6 % PEG3350, 0.2 M lithium citrate, 0.3 – 0.4 % CHAPS; apo and Mg2+-soaked crystals; both purified.

For experiment [2], the target named is T2, His6-MBP-TEV-CTDNEP1ΔAH (human) (UniProt O95476).
T2 sequence: T1 sequence
Kind of experiment: SEC; 12 μM His6-MBP-CTDNEP1ΔAH (or S232D) mixed with 53 μM NEP1R1, on ice 3 h, Superdex200 increase 10/300; fractions analysed by pNPP assay and SDS-PAGE; both purified.

Experiment [3] deals with T3, His6-MBP-TEV-CTDNEP1ΔAHS232D (human) (UniProt O95476).
T3 sequence: T1 sequence with S193D
Kind of experiment: condition: 12 μM MBP-CTDNEP1ΔAHS232D with 53 μM NEP1R1; SEC; 12 μM His6-MBP-CTDNEP1ΔAH (or S232D) mixed with 53 μM NEP1R1, on ice 3 h, Superdex200 increase 10/300; fractions analysed by pNPP assay and SDS-PAGE; both purified.

The target in experiment [4] is His6-MBP-TEV-NEP1R1 (human). The experiment is described as follows: co-purification after co-expression (Ni-NTA, amylose, SEC); His6-MBP-NEP1R1 co-expressed with untagged CTDNEP1 forms in E. coli; membranes extracted with 1 % DDM; Ni-NTA, amylose resin, Superdex 200 in 0.02 % GDN; 4 °C; SDS-PAGE.

Residue numbers refer to the chain shown, from its start. Numbers in names are those of the source. These are yes or no findings as the source states them, for the method shown. For part of these data: A result given as binding can be weak or reduced; the word gives no strength. Sequences can lack the tags named with a protein. For part of these data: Binding seen in cells or lysates may run through a third protein.

For “sNEP1R1 as it stands in the crystallised CTDNEP1ΔAH-linker-sNEP1R1-His6 fusion (human) (domain or fragment)”, the binding entry in experiment [1] is on record as “binds”. Regarding NEP1R1 (purified separately) (human), the results for the binding result in experiment [2] and in experiment [3] were “binds” and “no binding”, respectively.

B1: CTDNEP1ΔAH (untagged) (domain or fragment, UniProt O95476 40-244)
chain: T1 sequence
Regarding B1, the binding result in experiment [4] is recorded as “binds”.

B2: CTDNEP1 (untagged, wild type) (enzyme, UniProt O95476 1-244)
chain: MMRTQCLLGLRTFVAFAAKLWSFFIYLLRRQIRTVIQYQTVRYDILPLSPVSRNRLAQVKRKILVLDLDETLIHSHHDGVLRPTVRPGTPPDFILKVVIDKHPVRFFVHKRPHVDFFLEVVSQWYELVVFTASMEIYGSAVADKLDNSRSILKRRYYRQHCTLELGSYIKDLSVVHSDLSSIVILDNSPGAYRSHPDNAIPIKSWFSDPSDTALLNLLPMLDALRFTADVRSVLSRNLHQHRLW
As for B2, the binding result in experiment [4] is given as “binds”.

B3: CTDNEP1 D67E (untagged) (enzyme, UniProt O95476 1-244)
chain: B2 chain with D67E
For the molecule B3, the binding entry in experiment [4] is reported as “binds”.

Values taken from doi:10.1101/2023.11.20.567952.
